Data from PMC10940101.

Chains of the proteins cited; added tags and fusions are not shown. Lines headed by an entry give the natural chain unless they say otherwise; changes in a name come on top.
UniProt Q13535: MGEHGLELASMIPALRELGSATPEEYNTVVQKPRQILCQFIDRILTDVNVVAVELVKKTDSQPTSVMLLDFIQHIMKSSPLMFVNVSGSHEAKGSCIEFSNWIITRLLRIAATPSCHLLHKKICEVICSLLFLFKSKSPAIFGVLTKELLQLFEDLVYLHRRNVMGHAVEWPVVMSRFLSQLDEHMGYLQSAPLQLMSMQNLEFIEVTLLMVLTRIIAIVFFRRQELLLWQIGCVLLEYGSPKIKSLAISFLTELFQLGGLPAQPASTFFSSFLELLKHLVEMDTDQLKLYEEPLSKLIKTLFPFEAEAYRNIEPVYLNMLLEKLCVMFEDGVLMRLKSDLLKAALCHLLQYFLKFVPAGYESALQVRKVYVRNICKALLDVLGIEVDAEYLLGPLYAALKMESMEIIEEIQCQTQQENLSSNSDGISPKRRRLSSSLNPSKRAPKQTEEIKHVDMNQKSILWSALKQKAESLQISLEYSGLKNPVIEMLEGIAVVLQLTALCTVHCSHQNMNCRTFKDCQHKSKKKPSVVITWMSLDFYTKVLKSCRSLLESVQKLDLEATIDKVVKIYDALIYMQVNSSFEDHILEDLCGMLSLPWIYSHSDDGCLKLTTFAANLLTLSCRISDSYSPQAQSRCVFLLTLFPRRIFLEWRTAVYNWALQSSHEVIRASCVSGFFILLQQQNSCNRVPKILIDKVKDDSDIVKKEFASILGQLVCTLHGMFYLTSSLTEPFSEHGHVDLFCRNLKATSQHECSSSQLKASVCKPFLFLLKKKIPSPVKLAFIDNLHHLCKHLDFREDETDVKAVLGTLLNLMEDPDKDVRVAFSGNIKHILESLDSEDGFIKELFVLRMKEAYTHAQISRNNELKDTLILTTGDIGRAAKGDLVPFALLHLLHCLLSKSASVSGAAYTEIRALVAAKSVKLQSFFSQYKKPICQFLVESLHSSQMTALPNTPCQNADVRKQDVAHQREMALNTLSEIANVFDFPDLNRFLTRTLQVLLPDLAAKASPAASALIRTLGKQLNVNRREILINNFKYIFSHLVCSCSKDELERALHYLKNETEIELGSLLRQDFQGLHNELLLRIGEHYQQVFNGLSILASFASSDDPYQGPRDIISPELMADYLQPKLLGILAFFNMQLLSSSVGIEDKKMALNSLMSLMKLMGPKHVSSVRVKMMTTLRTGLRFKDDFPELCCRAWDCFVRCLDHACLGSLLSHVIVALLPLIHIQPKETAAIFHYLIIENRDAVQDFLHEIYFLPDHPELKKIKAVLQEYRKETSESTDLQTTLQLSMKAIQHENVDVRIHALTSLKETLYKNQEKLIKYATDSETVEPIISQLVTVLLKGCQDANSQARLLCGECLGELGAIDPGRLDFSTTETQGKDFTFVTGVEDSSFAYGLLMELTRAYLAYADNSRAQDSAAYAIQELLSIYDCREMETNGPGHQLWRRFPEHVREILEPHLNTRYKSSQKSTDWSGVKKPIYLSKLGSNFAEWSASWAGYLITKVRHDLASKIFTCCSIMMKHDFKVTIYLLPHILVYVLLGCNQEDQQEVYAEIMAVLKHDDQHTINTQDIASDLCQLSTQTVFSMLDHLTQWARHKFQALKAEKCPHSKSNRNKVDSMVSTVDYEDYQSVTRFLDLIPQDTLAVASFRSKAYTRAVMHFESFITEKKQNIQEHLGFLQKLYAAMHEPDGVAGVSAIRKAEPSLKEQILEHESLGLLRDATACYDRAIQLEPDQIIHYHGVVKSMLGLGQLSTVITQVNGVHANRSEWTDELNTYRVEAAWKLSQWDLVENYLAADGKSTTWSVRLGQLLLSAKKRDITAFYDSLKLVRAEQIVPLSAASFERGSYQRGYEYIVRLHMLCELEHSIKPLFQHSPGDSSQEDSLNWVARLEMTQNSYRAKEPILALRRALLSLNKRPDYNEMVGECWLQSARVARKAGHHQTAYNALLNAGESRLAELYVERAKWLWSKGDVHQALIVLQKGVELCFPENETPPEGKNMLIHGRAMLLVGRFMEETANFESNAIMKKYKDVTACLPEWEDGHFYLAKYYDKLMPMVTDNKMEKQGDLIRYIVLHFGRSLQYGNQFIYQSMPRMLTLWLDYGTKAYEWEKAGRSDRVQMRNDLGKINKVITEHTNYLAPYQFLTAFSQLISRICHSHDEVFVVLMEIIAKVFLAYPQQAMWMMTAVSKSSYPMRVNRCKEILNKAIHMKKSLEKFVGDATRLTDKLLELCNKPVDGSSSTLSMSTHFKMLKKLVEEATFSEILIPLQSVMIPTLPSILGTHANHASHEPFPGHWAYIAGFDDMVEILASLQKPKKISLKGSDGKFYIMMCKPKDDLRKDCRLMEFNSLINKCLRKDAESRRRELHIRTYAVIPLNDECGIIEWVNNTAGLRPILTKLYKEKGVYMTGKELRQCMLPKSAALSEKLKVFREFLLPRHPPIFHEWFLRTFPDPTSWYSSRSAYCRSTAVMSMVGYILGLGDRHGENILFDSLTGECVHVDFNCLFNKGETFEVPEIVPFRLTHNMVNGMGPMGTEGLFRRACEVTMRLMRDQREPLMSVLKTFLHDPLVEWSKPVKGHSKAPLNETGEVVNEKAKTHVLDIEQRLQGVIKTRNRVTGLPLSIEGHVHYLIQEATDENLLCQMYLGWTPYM

Molecular target: Ataxia-telangiectasia–mutated and Rad3-related protein (ATR) (human (endogenous in NP cells)) (UniProt Q13535)
Experiment: affinity purification with mass spectrometry; endogenous co-IP of ATR from normal and senescent NP cells, IgG isotype as control, n = 3 biological replicates

B1: tripartite motif–containing 56 (TRIM56) (protein, UniProt Q9BRZ2 1-755)
chain: MVSHGSSPSLLEALSSDFLACKICLEQLRAPKTLPCLHTYCQDCLAQLADGGRVRCPECRETVPVPPEGVASFKTNFFVNGLLDLVKARACGDLRAGKPACALCPLVGGTSTGGPATARCLDCADDLCQACADGHRCTRQTHTHRVVDLVGYRAGWYDEEARERQAAQCPQHPGEALRFLCQPCSQLLCRECRLDPHLDHPCLPLAEAVRARRPGLEGLLAGVDNNLVELEAARRVEKEALARLREQAARVGTQVEEAAEGVLRALLAQKQEVLGQLRAHVEAAEEAARERLAELEGREQVARAAAAFARRVLSLGREAEILSLEGAIAQRLRQLQGCPWAPGPAPCLLPQLELHPGLLDKNCHLLRLSFEEQQPQKDGGKDGAGTQGGEESQSRREDEPKTERQGGVQPQAGDGAQTPKEEKAQTTREEGAQTLEEDRAQTPHEDGGPQPHRGGRPNKKKKFKGRLKSISREPSPALGPNLDGSGLLPRPIFYCSFPTRMPGDKRSPRITGLCPFGPREILVADEQNRALKRFSLNGDYKGTVPVPEGCSPCSVAALQSAVAFSASARLYLINPNGEVQWRRALSLSQASHAVAALPSGDRVAVSVAGHVEVYNMEGSLATRFIPGGKASRGLRALVFLTTSPQGHFVGSDWQQNSVVICDGLGQVVGEYKGPGLHGCQPGSVSVDKKGYIFLTLREVNKVVILDPKGSLLGDFLTAYHGLEKPRVTTMVDGRYLVVSLSNGTIHIFRVRSPDS
  binding: binds

Results are given in words; binding and its absence hold for the method and conditions named. Binding seen in cells or lysates may run through a third protein. A yes stands for co-enrichment or nearness to the bait. Other partners may have been found.
